No constants are given. Whether binding was seen depends on the method and setting. Binding calls can cover weak binding; strength is not graded here. Where a sequence is shown, tags or fusion partners need not be part of it.
Molecular target: collagen I
Assay: ELISA, collagen I coated, LAIR1-ECD-His 10 ug/ml pre-incubated with antibody 10 ug/ml, anti-His-HRP

- binding: binds
B1: human LAIR1 extracellular domain (ECD) protein with 6 HIS tag at the C-terminus (receptor)
chain: QEEDLPRPSISAEPGTVIPLGSHVTFVCRGPVGVQTFRLERESRSTYNDTEDVSQASPSESEARFRIDSVSEGNAGPYRCIYYKPPKWSEQSDYLELLVKETSGGPDSPDTEPGSSAGPTQRPSDNSHNEHAPASQGLKAEHLYHHHHHH
